Source: the supplement of paper PMC6411743
± gives the standard deviation of the averaged measurements. This is a selection; strong and weak results do not stand in their true shares.

Protein sequences, listed by entry. Tags and fused reporters are not part of them. Lines headed by an entry give the natural chain unless they say otherwise; changes in a name come on top.
UniProt Q86WW8: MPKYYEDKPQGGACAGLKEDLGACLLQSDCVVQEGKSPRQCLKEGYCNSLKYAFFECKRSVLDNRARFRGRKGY
UniProt O94905: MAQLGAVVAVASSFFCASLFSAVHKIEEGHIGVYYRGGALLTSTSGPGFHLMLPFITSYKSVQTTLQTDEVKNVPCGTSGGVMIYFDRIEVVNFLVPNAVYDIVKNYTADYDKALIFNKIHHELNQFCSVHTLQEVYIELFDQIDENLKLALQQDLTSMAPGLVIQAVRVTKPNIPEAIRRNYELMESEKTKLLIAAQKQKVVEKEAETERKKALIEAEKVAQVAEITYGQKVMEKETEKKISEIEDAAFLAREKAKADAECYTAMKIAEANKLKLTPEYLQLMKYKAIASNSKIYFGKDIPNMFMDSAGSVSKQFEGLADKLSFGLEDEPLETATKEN
UniProt Q9Y6E0: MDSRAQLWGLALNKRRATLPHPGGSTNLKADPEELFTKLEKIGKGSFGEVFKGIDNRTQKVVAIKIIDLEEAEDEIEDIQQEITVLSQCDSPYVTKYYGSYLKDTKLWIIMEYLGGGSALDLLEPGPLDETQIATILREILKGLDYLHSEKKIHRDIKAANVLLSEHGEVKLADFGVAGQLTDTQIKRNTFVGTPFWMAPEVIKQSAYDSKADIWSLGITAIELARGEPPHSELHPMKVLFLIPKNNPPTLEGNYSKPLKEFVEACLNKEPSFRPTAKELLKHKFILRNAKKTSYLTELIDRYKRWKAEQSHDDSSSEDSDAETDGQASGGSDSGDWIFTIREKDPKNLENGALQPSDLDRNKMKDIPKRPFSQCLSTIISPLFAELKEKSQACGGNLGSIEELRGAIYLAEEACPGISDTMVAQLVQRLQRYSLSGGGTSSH
UniProt O75122: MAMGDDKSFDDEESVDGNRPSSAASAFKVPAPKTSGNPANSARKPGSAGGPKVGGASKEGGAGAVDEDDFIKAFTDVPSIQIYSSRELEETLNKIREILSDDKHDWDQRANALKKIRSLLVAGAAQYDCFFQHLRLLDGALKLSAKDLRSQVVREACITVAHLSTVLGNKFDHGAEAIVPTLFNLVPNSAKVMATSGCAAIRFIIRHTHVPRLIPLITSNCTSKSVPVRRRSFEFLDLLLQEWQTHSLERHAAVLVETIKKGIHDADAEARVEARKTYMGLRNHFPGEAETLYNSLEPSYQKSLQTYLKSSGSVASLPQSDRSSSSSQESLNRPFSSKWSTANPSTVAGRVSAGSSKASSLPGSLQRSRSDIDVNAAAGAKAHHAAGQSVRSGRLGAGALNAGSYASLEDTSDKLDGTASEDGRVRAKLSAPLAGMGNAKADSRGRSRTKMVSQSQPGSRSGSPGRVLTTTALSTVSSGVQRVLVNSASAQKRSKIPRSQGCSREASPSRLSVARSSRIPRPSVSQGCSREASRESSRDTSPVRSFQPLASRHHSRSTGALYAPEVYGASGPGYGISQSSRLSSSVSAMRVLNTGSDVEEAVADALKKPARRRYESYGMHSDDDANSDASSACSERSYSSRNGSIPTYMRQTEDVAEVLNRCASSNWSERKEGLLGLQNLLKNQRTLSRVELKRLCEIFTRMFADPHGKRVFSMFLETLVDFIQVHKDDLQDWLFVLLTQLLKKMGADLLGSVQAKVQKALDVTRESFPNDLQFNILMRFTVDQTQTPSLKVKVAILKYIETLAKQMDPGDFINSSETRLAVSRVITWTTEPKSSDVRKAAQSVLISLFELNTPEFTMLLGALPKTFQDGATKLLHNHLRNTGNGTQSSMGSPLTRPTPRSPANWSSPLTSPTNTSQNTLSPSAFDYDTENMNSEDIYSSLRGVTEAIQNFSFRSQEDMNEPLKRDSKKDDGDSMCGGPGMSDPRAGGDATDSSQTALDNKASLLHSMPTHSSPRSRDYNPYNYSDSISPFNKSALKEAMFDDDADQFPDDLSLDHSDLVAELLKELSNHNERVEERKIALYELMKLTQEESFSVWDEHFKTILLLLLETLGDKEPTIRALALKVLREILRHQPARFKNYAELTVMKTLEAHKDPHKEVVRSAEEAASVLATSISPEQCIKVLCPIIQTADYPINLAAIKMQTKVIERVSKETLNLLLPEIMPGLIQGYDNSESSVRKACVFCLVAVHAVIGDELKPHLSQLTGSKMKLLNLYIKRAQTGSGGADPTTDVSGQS
UniProt Q12905: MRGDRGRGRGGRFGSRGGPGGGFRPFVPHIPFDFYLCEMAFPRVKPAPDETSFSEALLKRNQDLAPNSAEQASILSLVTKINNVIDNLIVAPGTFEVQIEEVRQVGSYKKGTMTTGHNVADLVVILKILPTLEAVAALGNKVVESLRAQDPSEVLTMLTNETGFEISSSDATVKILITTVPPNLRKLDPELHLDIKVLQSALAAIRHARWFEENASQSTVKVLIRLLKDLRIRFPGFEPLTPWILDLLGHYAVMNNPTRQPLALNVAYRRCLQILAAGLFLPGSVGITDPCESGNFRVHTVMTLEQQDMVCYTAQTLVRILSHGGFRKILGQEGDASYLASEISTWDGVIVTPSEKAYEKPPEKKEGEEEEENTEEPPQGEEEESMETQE
UniProt Q15853: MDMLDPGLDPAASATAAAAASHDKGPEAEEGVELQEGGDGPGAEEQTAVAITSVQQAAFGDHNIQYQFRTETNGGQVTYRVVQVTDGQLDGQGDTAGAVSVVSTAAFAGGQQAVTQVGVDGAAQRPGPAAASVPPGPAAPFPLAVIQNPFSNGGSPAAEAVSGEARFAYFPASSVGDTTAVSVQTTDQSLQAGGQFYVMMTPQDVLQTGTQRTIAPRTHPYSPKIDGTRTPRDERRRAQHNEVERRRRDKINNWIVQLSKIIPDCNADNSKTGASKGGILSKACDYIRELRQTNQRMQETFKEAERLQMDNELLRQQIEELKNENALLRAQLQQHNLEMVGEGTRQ
UniProt Q5T8D3: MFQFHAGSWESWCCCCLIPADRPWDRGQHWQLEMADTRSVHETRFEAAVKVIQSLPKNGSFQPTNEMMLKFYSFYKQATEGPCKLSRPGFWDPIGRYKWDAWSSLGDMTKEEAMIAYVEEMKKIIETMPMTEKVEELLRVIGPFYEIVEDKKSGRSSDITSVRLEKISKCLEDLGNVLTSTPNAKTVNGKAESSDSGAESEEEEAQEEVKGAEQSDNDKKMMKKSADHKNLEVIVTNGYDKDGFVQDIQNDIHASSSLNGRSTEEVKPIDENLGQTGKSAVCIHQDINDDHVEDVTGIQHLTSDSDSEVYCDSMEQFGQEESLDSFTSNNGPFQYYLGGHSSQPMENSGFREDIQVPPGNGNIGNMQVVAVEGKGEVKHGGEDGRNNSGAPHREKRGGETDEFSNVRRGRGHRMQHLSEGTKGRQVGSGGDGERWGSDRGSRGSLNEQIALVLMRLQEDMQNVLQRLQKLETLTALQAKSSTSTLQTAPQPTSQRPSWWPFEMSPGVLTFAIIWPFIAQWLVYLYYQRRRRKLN
UniProt Q14141: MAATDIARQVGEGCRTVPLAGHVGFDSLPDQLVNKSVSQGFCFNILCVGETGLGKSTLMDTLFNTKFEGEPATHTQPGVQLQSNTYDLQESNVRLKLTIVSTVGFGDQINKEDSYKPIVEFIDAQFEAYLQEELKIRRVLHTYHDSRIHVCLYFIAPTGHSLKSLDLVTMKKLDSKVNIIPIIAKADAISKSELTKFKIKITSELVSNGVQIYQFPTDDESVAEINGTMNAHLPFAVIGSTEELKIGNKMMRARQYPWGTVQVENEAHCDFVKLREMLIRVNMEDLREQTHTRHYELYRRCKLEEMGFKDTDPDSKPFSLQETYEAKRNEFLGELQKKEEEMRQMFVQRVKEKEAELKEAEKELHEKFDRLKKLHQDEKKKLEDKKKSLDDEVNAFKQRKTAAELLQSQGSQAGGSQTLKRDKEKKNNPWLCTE
UniProt Q8WVV9: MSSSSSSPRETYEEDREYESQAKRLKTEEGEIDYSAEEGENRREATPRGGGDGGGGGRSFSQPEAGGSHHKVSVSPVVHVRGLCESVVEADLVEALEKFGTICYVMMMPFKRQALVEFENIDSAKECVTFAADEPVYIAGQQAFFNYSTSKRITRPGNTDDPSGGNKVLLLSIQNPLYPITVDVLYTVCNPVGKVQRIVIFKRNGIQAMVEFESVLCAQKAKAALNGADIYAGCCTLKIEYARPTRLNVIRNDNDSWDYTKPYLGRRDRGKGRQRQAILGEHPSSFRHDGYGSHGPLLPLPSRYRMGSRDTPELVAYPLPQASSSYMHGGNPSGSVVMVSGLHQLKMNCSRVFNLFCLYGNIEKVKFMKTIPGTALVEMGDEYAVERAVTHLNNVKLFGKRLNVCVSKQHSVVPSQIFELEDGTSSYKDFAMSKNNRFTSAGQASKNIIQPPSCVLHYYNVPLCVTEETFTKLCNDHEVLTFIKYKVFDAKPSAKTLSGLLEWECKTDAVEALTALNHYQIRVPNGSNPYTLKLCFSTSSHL
UniProt A9UHW6: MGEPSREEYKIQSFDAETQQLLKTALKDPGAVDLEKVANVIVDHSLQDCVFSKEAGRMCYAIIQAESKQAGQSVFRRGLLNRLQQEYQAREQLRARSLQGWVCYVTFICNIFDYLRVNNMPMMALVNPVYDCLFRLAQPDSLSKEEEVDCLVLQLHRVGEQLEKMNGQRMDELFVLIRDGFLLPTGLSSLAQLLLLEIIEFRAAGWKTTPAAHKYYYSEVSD
UniProt Q8IVH2: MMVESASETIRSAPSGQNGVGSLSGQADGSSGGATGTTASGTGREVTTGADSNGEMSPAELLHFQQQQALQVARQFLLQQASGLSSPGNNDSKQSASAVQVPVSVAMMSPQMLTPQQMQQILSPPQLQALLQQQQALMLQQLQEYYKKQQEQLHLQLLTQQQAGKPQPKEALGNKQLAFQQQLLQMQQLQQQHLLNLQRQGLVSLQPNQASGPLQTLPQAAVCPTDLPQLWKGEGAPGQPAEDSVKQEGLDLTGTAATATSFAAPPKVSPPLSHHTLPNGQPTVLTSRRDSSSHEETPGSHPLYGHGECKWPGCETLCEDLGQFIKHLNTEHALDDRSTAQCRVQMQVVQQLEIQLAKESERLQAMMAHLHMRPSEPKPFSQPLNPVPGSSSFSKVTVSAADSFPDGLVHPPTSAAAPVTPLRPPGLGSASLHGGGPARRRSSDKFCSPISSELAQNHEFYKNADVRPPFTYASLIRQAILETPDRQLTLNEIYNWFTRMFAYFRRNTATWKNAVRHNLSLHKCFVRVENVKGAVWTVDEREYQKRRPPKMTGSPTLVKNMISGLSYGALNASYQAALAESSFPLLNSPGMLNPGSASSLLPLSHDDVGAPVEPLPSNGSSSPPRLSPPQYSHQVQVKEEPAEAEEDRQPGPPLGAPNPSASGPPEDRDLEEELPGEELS
UniProt Q969S8: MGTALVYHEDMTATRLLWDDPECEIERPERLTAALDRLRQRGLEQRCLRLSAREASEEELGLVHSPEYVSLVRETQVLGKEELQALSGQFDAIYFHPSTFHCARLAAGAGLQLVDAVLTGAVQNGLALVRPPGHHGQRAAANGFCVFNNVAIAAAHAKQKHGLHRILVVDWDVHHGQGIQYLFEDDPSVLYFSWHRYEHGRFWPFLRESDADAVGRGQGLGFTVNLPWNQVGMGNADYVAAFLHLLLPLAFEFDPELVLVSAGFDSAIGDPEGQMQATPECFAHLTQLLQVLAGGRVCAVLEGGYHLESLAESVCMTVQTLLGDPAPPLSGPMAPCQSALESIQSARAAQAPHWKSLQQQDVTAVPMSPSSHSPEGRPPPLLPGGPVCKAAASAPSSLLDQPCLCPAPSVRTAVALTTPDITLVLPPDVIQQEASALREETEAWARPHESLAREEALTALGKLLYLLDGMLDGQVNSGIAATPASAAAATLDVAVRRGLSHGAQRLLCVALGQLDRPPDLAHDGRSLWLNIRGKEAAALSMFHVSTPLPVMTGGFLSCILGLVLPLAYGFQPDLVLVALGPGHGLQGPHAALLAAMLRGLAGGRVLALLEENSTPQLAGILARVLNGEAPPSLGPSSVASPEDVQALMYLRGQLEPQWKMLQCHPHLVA
UniProt Q96RU3: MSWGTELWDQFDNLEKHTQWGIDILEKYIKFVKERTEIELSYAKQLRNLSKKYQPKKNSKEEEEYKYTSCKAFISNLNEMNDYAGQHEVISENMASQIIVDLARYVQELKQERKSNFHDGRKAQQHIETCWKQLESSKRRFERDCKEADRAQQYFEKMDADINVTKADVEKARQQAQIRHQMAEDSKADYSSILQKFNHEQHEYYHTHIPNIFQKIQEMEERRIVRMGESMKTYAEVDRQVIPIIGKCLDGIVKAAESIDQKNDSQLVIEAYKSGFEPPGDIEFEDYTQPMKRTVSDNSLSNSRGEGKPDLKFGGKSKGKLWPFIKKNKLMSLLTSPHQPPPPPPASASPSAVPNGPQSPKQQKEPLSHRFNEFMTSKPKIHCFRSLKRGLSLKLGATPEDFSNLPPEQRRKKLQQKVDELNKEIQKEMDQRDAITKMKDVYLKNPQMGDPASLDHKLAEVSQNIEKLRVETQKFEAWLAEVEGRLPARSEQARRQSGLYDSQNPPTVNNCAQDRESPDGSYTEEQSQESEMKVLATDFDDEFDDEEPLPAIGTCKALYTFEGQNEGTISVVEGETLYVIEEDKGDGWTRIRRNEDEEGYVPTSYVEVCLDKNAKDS

Compound: Nc1ncnc2c1ncn2[C@@H]1O[C@H](COP(=O)(O)OP(=O)(O)NP(=O)(O)O)[C@@H](O)[C@H]1O [adenylyl imidodiphosphate]
Assay: NP40-soluble protein abundance relative to vehicle (solubility fold change) (ratio); higher = more soluble protein in presence of AMP-PNP
Outline: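 In three independent experiments, Jurkat crude lysate made by Dounce homogenisation was treated for 10 min at room temperature and then 3 min at 37 °C with eight concentrations ranging from 0.1 to 10 mM. It was then solubilised with 0.8% NP40 plus benzonase for 60 min at 4 °C and ultracentrifuged. The supernatant was TMT-labelled for LC-MS/MS, and each value is the fold change against the detergent-processed vehicle for the same replicate, using vsn-normalised intensities.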

Row | Target | NP40-soluble protein abundance (concentration: 1mM) | NP40-soluble protein abundance (concentration: 2mM) | NP40-soluble protein abundance (concentration: 4mM) | NP40-soluble protein abundance (concentration: 6mM) | NP40-soluble protein abundance (concentration: 8mM) | NP40-soluble protein abundance (concentration: 10mM)
1 | B9A057 and related entries (UniProt Q86WW8) | 1.05 ± 0.055 | 1.11 ± 0.09 | 1.11 ± 0.062 | 1.08 ± 0.028 | 1.13 ± 0.038 | 1.13 ± 0.061
2 | E5RHW4 and related entries (UniProt O94905) | 0.989 ± 0.11 | 0.998 ± 0.077 | 0.944 ± 0.12 | 0.96 ± 0.15 | 0.917 ± 0.11 | 0.941 ± 0.18
3 | B7ZM99 and related entries (UniProt Q6UB35) | 0.983 ± 0.024 | 0.92 ± 0.098 | 0.967 ± 0.015 | 0.973 ± 0.024 | 0.969 ± 0.018 | 0.946 ± 0.016
4 | A6NHB5 and related entries (UniProt Q14202) | 1.01 ± 0.037 | 1 ± 0.026 | 1.06 ± 0.053 | 1.03 ± 0.036 | 1.03 ± 0.057 | 1.06 ± 0.045
5 | UniProt A2RRP1 and related entries | 0.951 ± 0.05 | 0.867 ± 0.081 | 0.943 ± 0.043 | 0.91 ± 0.02 | 0.918 ± 0.051 | 0.887 ± 0.045
6 | B4DR80 and related entries (UniProt Q9Y6E0) | 0.999 ± 0.02 | 1.04 ± 0.098 | 0.997 ± 0.012 | 1 ± 0.027 | 0.988 ± 0.016 | 1.01 ± 0.02
7 | C5orf51 (UniProt A6NDU8) | 1.04 ± 0.014 | 1.03 ± 0.025 | 1.01 ± 0.025 | 0.9735 ± 0.0065 | 0.953 ± 0.017 | 0.95 ± 0.05
8 | E3W994 and related entries (UniProt O75122) | 1.04 ± 0.046 | 1.08 ± 0.042 | 1.05 ± 0.048 | 1.08 ± 0.096 | 1.07 ± 0.11 | 1.14 ± 0.086
9 | D6RBY0 and related entries (UniProt Q8TAC1) | 0.9904 ± 0.0088 | 0.968 ± 0.033 | 0.974 ± 0.018 | 0.993 ± 0.02 | 1.01 ± 0.026 | 0.996 ± 0.0093
10 | D6RD24 and related entries (UniProt Q7Z6J8) | 0.984 ± 0.033 | 1.01 ± 0.01 | 1 ± 0.027 | 0.993 ± 0.027 | 0.995 ± 0.021 | 0.994 ± 0.016
11 | B4DY09 and related entries (UniProt Q12905) | 1.06 ± 0.025 | 1.04 ± 0.041 | 1.07 ± 0.052 | 1.16 ± 0.032 | 1.18 ± 0.048 | 1.19 ± 0.058
12 | B4DLJ1 and related entries (UniProt Q15853) | 1.03 ± 0.026 | 1.07 ± 0.067 | 1.04 ± 0.042 | 1.04 ± 0.028 | 1.03 ± 0.034 | 1.07 ± 0.032
13 | A9Z1X7 and related entries (UniProt Q8IYB3) | 1.03 ± 0.034 | 1.08 ± 0.11 | 1.06 ± 0.062 | 1.1 ± 0.052 | 1.03 ± 0.077 | 1.1 ± 0.086
14 | D6RAM1 and related entries (UniProt P31943) | 1.03 ± 0.0061 | 0.996 ± 0.042 | 1.03 ± 0.026 | 0.971 ± 0.022 | 0.9782 ± 0.0075 | 0.966 ± 0.029
15 | B4E107 and related entries (UniProt O95260) | 1.03 ± 0.02 | 1.04 ± 0.029 | 1.04 ± 0.015 | 1.01 ± 0.02 | 0.992 ± 0.015 | 1.01 ± 0.053
16 | B7Z2R7 and related entries (UniProt Q5T8D3) | 1 ± 0.021 | 1.05 ± 0.053 | 0.994 ± 0.052 | 0.981 ± 0.015 | 0.941 ± 0.017 | 0.982 ± 0.033
17 | C9K025 and related entries (UniProt P18077) | 1 ± 0.024 | 1.04 ± 0.034 | 1.01 ± 0.073 | 1.01 ± 0.015 | 0.906 ± 0.076 | 1.02 ± 0.061
18 | CCDC85C (UniProt A6NKD9) | 0.9594 ± 0.0012 | 1.0044 ± 0.00019 | 0.953 ± 0.035 | 0.9849 ± 0.007 | 0.9793 ± 0.0043 | 0.9704 ± 0.0054
19 | B1AMS2 and related entries (UniProt Q14141) | 1.01 ± 0.023 | 1.04 ± 0.035 | 0.973 ± 0.049 | 1 ± 0.022 | 0.964 ± 0.039 | 0.974 ± 0.033
20 | C9IYN3 and related entries (UniProt Q8WVV9+D6W592+C9IYN3) | 1.01 ± 0.029 | 0.957 ± 0.064 | 1 ± 0.018 | 0.988 ± 0.029 | 1 ± 0.038 | 0.986 ± 0.011
21 | MIF4GD (UniProt A9UHW6) | 0.968 ± 0.045 | 0.9704 ± 0.0057 | 0.951 ± 0.034 | 0.938 ± 0.039 | 0.918 ± 0.032 | 0.905 ± 0.045
22 | C9J381 and related entries (UniProt P20839) | 0.918 ± 0.04 | 0.859 ± 0.063 | 0.846 ± 0.11 | 0.856 ± 0.063 | 0.874 ± 0.049 | 0.891 ± 0.1
23 | B7ZBM3 and related entries (UniProt Q8IVH2) | 0.961 ± 0.023 | 1.02 ± 0.043 | 0.9467 ± 0.0055 | 0.933 ± 0.034 | 0.929 ± 0.031 | 0.946 ± 0.027
24 | B4E2Q0 and related entries (UniProt P98194) | 0.996 ± 0.07 | 0.946 ± 0.043 | 0.995 ± 0.036 | 0.962 ± 0.03 | 0.975 ± 0.017 | 0.953 ± 0.02
25 | B5MBX0 and related entries (UniProt Q96FF9) | 1 ± 0.021 | 1.04 ± 0.058 | 1 ± 0.021 | 1.01 ± 0.016 | 1.02 ± 0.0052 | 1.02 ± 0.024
26 | UniProt A4D1P6 and related entries | 1.05 ± 0.027 | 1.08 ± 0.042 | 1.02 ± 0.024 | 0.995 ± 0.063 | 0.978 ± 0.025 | 1 ± 0.048
27 | E5RFJ1 and related entries (UniProt Q96MF7) | 1.01 ± 0.028 | 1.03 ± 0.06 | 1.02 ± 0.035 | 0.957 ± 0.033 | 0.989 ± 0.022 | 0.9706 ± 0.0092
28 | C9J8B8 and related entries (UniProt Q969S8) | 0.9555 ± 0.00065 | 0.968 ± 0.044 | 0.944 ± 0.028 | 0.975 ± 0.027 | 0.9371 ± 0.0074 | 0.961 ± 0.024
29 | B7ZL14 and related entries (UniProt Q96RU3) | 1.031 ± 0.009 | 1.06 ± 0.062 | 1.01 ± 0.022 | 1.01 ± 0.026 | 0.991 ± 0.034 | 1 ± 0.046
30 | C9J5C3 and related entries (UniProt Q9BUL8) | 1.02 ± 0.045 | 1.01 ± 0.0049 | 1.02 ± 0.029 | 1.01 ± 0.039 | 1.01 ± 0.021 | 1 ± 0.046

Look-ups from the results shown.
NP40-soluble protein abundance (concentration: 4mM), A6NHB5 and related entries (UniProt Q14202) reads 1.06 ± 0.053
NP40-soluble protein abundance (concentration: 1mM), UniProt A2RRP1 and related entries reads 0.951 ± 0.05
